Results taken from patent publication US20050130197A1, “Homogeneous fluorescence polarization assay for high throughput screening” (priority 2003, published 2005).
At least one compound was matched to its structure with a doubt left. Some entries share one result that the patent states for a list of compounds. Some compounds share one range, which may span the group rather than tell each member. Where no end group is shown, it is not given here.

Chains of the proteins cited; added tags and fusions are not shown. Lines headed by an entry give the natural chain unless they say otherwise; changes in a name come on top.
UniProt Q9Y5X5: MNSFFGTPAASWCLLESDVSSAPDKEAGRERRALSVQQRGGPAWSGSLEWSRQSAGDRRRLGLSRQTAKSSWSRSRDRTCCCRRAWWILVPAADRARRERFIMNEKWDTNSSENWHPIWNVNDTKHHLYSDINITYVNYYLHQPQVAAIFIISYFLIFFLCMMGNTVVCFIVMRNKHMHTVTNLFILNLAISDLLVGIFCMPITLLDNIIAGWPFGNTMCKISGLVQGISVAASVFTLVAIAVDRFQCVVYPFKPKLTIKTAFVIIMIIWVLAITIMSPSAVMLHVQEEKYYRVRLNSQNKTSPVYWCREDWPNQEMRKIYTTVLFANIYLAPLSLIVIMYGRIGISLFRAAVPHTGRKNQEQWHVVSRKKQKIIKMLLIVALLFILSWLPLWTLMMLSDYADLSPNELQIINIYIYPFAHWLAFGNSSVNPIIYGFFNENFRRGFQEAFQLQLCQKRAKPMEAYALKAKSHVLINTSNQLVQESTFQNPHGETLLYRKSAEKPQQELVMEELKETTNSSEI

Target: T1, human NPFF2 receptor (Homo sapiens, UniProt Q9Y5X5)
T1 construct: purchased Euroscreen s.a; (Brussels, Belgium)
Assay: Fluorescence polarization (FP) competition binding assay, TAMRA-NPFF tracer, 0.1% Pluronic F-127
Settings: for assay window of NPFF2 receptor: 10 μM each compound, 0.1% Pluronic F-127, range over the listed compounds
Method: Human NPFF2 receptor membrane homogenates were diluted in a binding buffer (50 mM HEPES buffer, pH 7.4 and various concentrations of detergents) to the membrane concentration required. In general, the binding assay was performed in a final volume of 40 μl: 20 μl of displacing ligand, 10 μl of fluorescent tracer, and 10 μl of diluted receptor membrane preparation (3.6-4.2 ug protein/well depending on the assay), which were added sequentially. The reaction was incubated at room temperature for 0.5-24 h before FP was measured depending on each experiment.
FP binding data were analyzed and fitted using GraphPad Prism® software (GraphPad Software, Inc., San Diego, Calif.). Competitive binding data was fit to a one-site competitive binding equation using nonlinear regression curve fitting. IC50 values were determined by nonlinear regression analysis of the inhibition curves. Data points in the displacement curves and in the graphs of DMSO, nonionic detergents, Chicago Sky Blue 6B and tartrazine consist of an average of 4-6 repetitions. All error bars represent ±1 standard deviation unit of the spread of the data except for displacement curves, where the error bars represent ±SEM. mP is defined by the following equation: mP=1000×(I∥−I⊥)/(I∥+I⊥) where mP=milli-polarization, I∥=parallel component of the emitted light, and I⊥=perpendicular component of the emitted light. Assay precision was assessed by calculating the Z′ value: Z′=1−[(3*σbound)+(3*σdisplaced)/|(mPbound−mPdisplaced)|] where σ is the standard deviation in the signal, mP: the subscript “bound” corresponds to the signal obtained in the absence of a displacing substance; and the subscript “displaced” corresponds to the signal of a completely displaced ligand (Zhang, J-H. et al., J. Biomol. Screen., (1999) 4, 67-73; Banks, P. et al., J. Biomol. Screen., (2002) 7, 111-117). The denominator of the equation calculates the specific binding expressed in the absolute value of mP difference, and the numerator calculates the precision in both bound and displaced signals. Background correction was done after each analysis by subtracting blank parallel and perpendicular intensities from the respective intensities. According to Z′ value model, the Z′ values of above 0.5 indicate excellent assays.

| Compound | assay window of NPFF2 receptor | affinity to the TAMRA-NPFF binding site / binding to NPFF2 receptor (10 μM, FP assay) |
| --- | --- | --- |
| CC(COc1ccccc1)N(CCCl)Cc1ccccc1 (stereo not shown) [phenoxybenzamine] | −29 to 32 mP |  |
| RPPGFSPFR [bradykinin] | −29 to 32 mP | little or no affinity |
| CO[C@H]1[C@@H](OC)C[C@@H](O[C@@H]2O[C@H](CO)[C@@H](O)[C@H](O)[C@H]2O)/C(=C\C#N)[C@@H]1O [simmondsin] | −29 to 32 mP |  |
